{"source": "the supplement of paper PMC8728848", "binders": {"B1": {"name": "Gal 10 (Homo sapiens), Q05315 (protein)", "chain": "MSLLPVPYTEAASLSTGSTVTIKGRPLVCFLNEPYLQVDFHTEMKEESDIVFHFQVCFGRRVVMNSREYGAWKQQVESKNMPFQDGQEFELSISVLPDKYQVMVNGQSSYTFDHRIKPEAVKMVQVWRDISLTKFNVSYLKR"}}, "test_in_all_cases": "glycan array binding signal (z-score within array); higher = stronger binding", "conditions_in_all_cases": "glycan notation: IUPAC condensed, linker removed", "key": {"[1]": {"target": "Fuc(a1-2)[GalNAc(a1-3)]Gal(b1-4)GlcNAc(b1-3)[Fuc(a1-2)[GalNAc(a1-3)]Gal(b1-4)GlcNAc(b1-6)]GalNAc", "outline": "(§1)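 Glycan array data were curated from 3228 arrays in the Consortium for Functional Glycomics database and kept only where the protein sequence was available. Glycan names were converted to IUPAC-condensed notation, and columns mapping to the same glycan were averaged. The binding signal is a within-array Z-score, averaged across arrays of the same protein sequence at different concentrations or buffers and across linkers. Negative Z-scores can be read as non-binding.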"}, "[2]": {"target": "Fuc(a1-2)[GalNAc(a1-3)]Gal(b1-4)GlcNAc(b1-6)GalNAc", "outline": "as §1"}, "[3]": {"target": "Fuc(a1-2)[GalNAc(a1-3)]Gal(b1-4)[Fuc(a1-3)]GlcNAc", "outline": "as §1"}, "[4]": {"target": "Fuc(a1-2)[GalNAc(a1-3)]Gal(b1-4)[Fuc(a1-3)]GlcNAc(b1-3)GalNAc", "outline": "as §1"}, "[5]": {"target": "Fuc(a1-2)[GalNAc(a1-4)]Gal(b1-4)GlcNAc", "outline": "as §1"}, "[6]": {"target": "Fuc(a1-2)[GalNAc(b1-3)]Gal", "outline": "as §1"}, "Fuc(a1-3)GlcNAc": {"target": "Fuc(a1-3)GlcNAc", "outline": "as §1"}, "[7]": {"target": "Fuc(a1-3)[Gal(b1-4)]Glc6S", "outline": "as §1"}, "[8]": {"target": "Fuc(a1-3)[Gal(b1-4)]GlcNAc", "outline": "as §1"}, "[9]": {"target": "Fuc(a1-3)[Gal(b1-4)]GlcNAc(b1-2)Man", "outline": "as §1"}, "[10]": {"target": "Fuc(a1-3)[Gal(b1-4)]GlcNAc(b1-2)Man(a1-3)[Fuc(a1-3)[Gal(b1-4)]GlcNAc(b1-2)Man(a1-6)]Man(b1-4)GlcNAc(b1-4)GlcNAc", "outline": "as §1"}, "[11]": {"target": "Fuc(a1-3)[Gal(b1-4)]GlcNAc(b1-2)Man(a1-3)[Fuc(a1-3)[Gal(b1-4)]GlcNAc(b1-2)Man(a1-6)]Man(b1-4)GlcNAc(b1-4)[Fuc(a1-6)]GlcNAc", "outline": "as §1"}, "[12]": {"target": "Fuc(a1-3)[Gal(b1-4)]GlcNAc(b1-3)Gal(b1-3)[Fuc(a1-4)]GlcNAc", "outline": "as §1"}, "[13]": {"target": "Fuc(a1-3)[Gal(b1-4)]GlcNAc(b1-3)GalNAc", "outline": "as §1"}, "[14]": {"target": "Fuc(a1-3)[Gal(b1-4)]GlcNAc(b1-4)Gal(b1-4)[Fuc(a1-3)]GlcNAc", "outline": "as §1"}, "[15]": {"target": "Fuc(a1-3)[Gal(b1-4)]GlcNAc(b1-4)Gal(b1-4)[Fuc(a1-3)]GlcNAc(b1-4)Gal(b1-4)[Fuc(a1-3)]GlcNAc", "outline": "as §1"}, "[16]": {"target": "Fuc(a1-3)[Gal(b1-4)]GlcNAc(b1-6)GalNAc", "outline": "as §1"}, "[17]": {"target": "Fuc(a1-3)[Gal(b1-4)]GlcNAc(b1-6)[Gal(b1-3)GlcNAc(b1-3)]Gal(b1-4)Glc", "outline": "as §1"}, "[18]": {"target": "Fuc(a1-3)[Gal(b1-4)]GlcNAc(b1-6)[Neu5Ac(a2-3)Gal(b1-3)]GalNAc", "outline": "as §1"}, "[19]": {"target": "Fuc(a1-3)[Gal(b1-4)]GlcNAc6S", "outline": "as §1"}, "[20]": {"target": "Fuc(a1-3)[Gal3S(b1-4)]Glc", "outline": "as §1"}, "[21]": {"target": "Fuc(a1-3)[Gal3S(b1-4)]GlcNAc", "outline": "as §1"}, "[22]": {"target": "Fuc(a1-3)[Gal3S(b1-4)]GlcNAc6S", "outline": "as §1"}, "[23]": {"target": "Fuc(a1-3)[GalNAc(b1-4)]GlcNAc", "outline": "as §1"}, "[24]": {"target": "Fuc(a1-3)[GalNAc(b1-4)]GlcNAc6S", "outline": "as §1"}, "[25]": {"target": "Fuc(a1-3)[GalNAc3S(b1-4)]GlcNAc", "outline": "as §1"}, "Fuc(a1-4)GlcNAc": {"target": "Fuc(a1-4)GlcNAc", "outline": "as §1"}, "Fuc(b1-3)GlcNAc": {"target": "Fuc(b1-3)GlcNAc", "outline": "as §1"}, "Gal(a1-2)Gal": {"target": "Gal(a1-2)Gal", "outline": "as §1"}, "Gal(a1-3)Gal": {"target": "Gal(a1-3)Gal", "outline": "as §1"}, "Gal(a1-3)Gal(b1-3)GlcNAc": {"target": "Gal(a1-3)Gal(b1-3)GlcNAc", "outline": "as §1"}, "[26]": {"target": "Gal(a1-3)Gal(b1-3)GlcNAc(b1-2)Man", "outline": "as §1"}, "[27]": {"target": "Gal(a1-3)Gal(b1-3)GlcNAc(b1-2)Man(a1-3)[Gal(a1-3)Gal(b1-3)GlcNAc(b1-2)Man(a1-6)]Man(b1-4)GlcNAc(b1-4)GlcNAc", "outline": "as §1"}, "[28]": {"target": "Gal(a1-3)Gal(b1-3)GlcNAc(b1-3)GalNAc", "outline": "as §1"}, "[29]": {"target": "Gal(a1-3)Gal(b1-3)GlcNAc(b1-6)GalNAc", "outline": "as §1"}, "[30]": {"target": "Gal(a1-3)Gal(b1-3)[Fuc(a1-4)]GlcNAc(b1-2)Man(a1-3)[Gal(a1-3)Gal(b1-3)[Fuc(a1-4)]GlcNAc(b1-2)Man(a1-6)]Man(b1-4)GlcNAc(b1-4)GlcNAc", "outline": "as §1"}, "Gal(a1-3)Gal(b1-4)Glc": {"target": "Gal(a1-3)Gal(b1-4)Glc", "outline": "as §1"}, "Gal(a1-3)Gal(b1-4)GlcNAc": {"target": "Gal(a1-3)Gal(b1-4)GlcNAc", "outline": "as §1"}, "[31]": {"target": "Gal(a1-3)Gal(b1-4)GlcNAc(b1-2)Man", "outline": "as §1"}, "[32]": {"target": "Gal(a1-3)Gal(b1-4)GlcNAc(b1-2)Man(a1-3)[Gal(a1-3)Gal(b1-4)GlcNAc(b1-2)Man(a1-6)]Man(b1-4)GlcNAc(b1-4)GlcNAc", "outline": "as §1"}, "[33]": {"target": "Gal(a1-3)Gal(b1-4)GlcNAc(b1-3)GalNAc", "outline": "as §1"}, "[34]": {"target": "Gal(a1-3)Gal(b1-4)GlcNAc(b1-6)GalNAc", "outline": "as §1"}, "[35]": {"target": "Gal(a1-3)Gal(b1-4)[Fuc(a1-3)]GlcNAc", "outline": "as §1"}, "[36]": {"target": "Gal(a1-3)Gal(b1-4)[Fuc(a1-3)]GlcNAc(b1-2)Man(a1-3)[Gal(a1-3)Gal(b1-4)[Fuc(a1-3)]GlcNAc(b1-2)Man(a1-6)]Man(b1-4)GlcNAc(b1-4)GlcNAc", "outline": "as §1"}, "Gal(a1-3)GalNAc": {"target": "Gal(a1-3)GalNAc", "outline": "as §1"}}, "note": "The list shows a part of the results."}
{"binder": "B1", "values": [{"measurement": "glycan array binding signal (z-score)", "setting": "[1]", "value": 3.88}, {"measurement": "glycan array binding signal (z-score)", "setting": "[2]", "value": -0.639}, {"measurement": "glycan array binding signal (z-score)", "setting": "[3]", "value": 0.948}, {"measurement": "glycan array binding signal (z-score)", "setting": "[4]", "value": 0.495}, {"measurement": "glycan array binding signal (z-score)", "setting": "[5]", "value": -0.476}, {"measurement": "glycan array binding signal (z-score)", "setting": "[6]", "value": -0.689}, {"measurement": "glycan array binding signal (z-score)", "setting": "Fuc(a1-3)GlcNAc", "value": 0.306}, {"measurement": "glycan array binding signal (z-score)", "setting": "[7]", "value": -0.989}, {"measurement": "glycan array binding signal (z-score)", "setting": "[8]", "value": -0.445}, {"measurement": "glycan array binding signal (z-score)", "setting": "[9]", "value": 1.17}, {"measurement": "glycan array binding signal (z-score)", "setting": "[10]", "value": 0.809}, {"measurement": "glycan array binding signal (z-score)", "setting": "[11]", "value": 0.244}, {"measurement": "glycan array binding signal (z-score)", "setting": "[12]", "value": -0.108}, {"measurement": "glycan array binding signal (z-score)", "setting": "[13]", "value": 0.678}, {"measurement": "glycan array binding signal (z-score)", "setting": "[14]", "value": 0.68}, {"measurement": "glycan array binding signal (z-score)", "setting": "[15]", "value": 0.306}, {"measurement": "glycan array binding signal (z-score)", "setting": "[16]", "value": 1.47}, {"measurement": "glycan array binding signal (z-score)", "setting": "[17]", "value": -0.203}, {"measurement": "glycan array binding signal (z-score)", "setting": "[18]", "value": -0.565}, {"measurement": "glycan array binding signal (z-score)", "setting": "[19]", "value": 0.152}, {"measurement": "glycan array binding signal (z-score)", "setting": "[20]", "value": -0.241}, {"measurement": "glycan array binding signal (z-score)", "setting": "[21]", "value": -0.733}, {"measurement": "glycan array binding signal (z-score)", "setting": "[22]", "value": 0.451}, {"measurement": "glycan array binding signal (z-score)", "setting": "[23]", "value": 0.593}, {"measurement": "glycan array binding signal (z-score)", "setting": "[24]", "value": -0.191}, {"measurement": "glycan array binding signal (z-score)", "setting": "[25]", "value": -0.225}, {"measurement": "glycan array binding signal (z-score)", "setting": "Fuc(a1-4)GlcNAc", "value": -0.138}, {"measurement": "glycan array binding signal (z-score)", "setting": "Fuc(b1-3)GlcNAc", "value": 0.585}, {"measurement": "glycan array binding signal (z-score)", "setting": "Gal(a1-2)Gal", "value": 0.13}, {"measurement": "glycan array binding signal (z-score)", "setting": "Gal(a1-3)Gal", "value": -0.311}, {"measurement": "glycan array binding signal (z-score)", "setting": "Gal(a1-3)Gal(b1-3)GlcNAc", "value": -0.317}, {"measurement": "glycan array binding signal (z-score)", "setting": "[26]", "value": -0.565}, {"measurement": "glycan array binding signal (z-score)", "setting": "[27]", "value": 1.89}, {"measurement": "glycan array binding signal (z-score)", "setting": "[28]", "value": -0.195}, {"measurement": "glycan array binding signal (z-score)", "setting": "[29]", "value": 0.334}, {"measurement": "glycan array binding signal (z-score)", "setting": "[30]", "value": 0.703}, {"measurement": "glycan array binding signal (z-score)", "setting": "Gal(a1-3)Gal(b1-4)Glc", "value": 0.851}, {"measurement": "glycan array binding signal (z-score)", "setting": "Gal(a1-3)Gal(b1-4)GlcNAc", "value": 0.105}, {"measurement": "glycan array binding signal (z-score)", "setting": "[31]", "value": -0.257}, {"measurement": "glycan array binding signal (z-score)", "setting": "[32]", "value": 0.982}, {"measurement": "glycan array binding signal (z-score)", "setting": "[33]", "value": 0.463}, {"measurement": "glycan array binding signal (z-score)", "setting": "[34]", "value": -0.126}, {"measurement": "glycan array binding signal (z-score)", "setting": "[35]", "value": -0.547}, {"measurement": "glycan array binding signal (z-score)", "setting": "[36]", "value": 0.274}, {"measurement": "glycan array binding signal (z-score)", "setting": "Gal(a1-3)GalNAc", "value": 0.123}]}
